Test results: PubChem BioAssay AID1347423 (Functional Genomics Laboratory (NCATS/FGL), 2020)
Screen size: about 52,000 sequences; about 210 (0.4%) were called active.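 Rule for the calls: active = gene whose silencing raises cell survival under the drug, median off-target-corrected z-score across its silencing RNAs 2 or more; inactive = the rest.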 Some of the results follow.

Test: Resistance to Poly (ADP-Ribose) Polymerase inhibitor: Gene Identification via Genome-wide siRNA Screen
Settings: mouse BRCA2 R2336H ES cells, olaparib, CellTiter-Glo viability; hits give high values
Outline: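 Genome-wide siRNA screen (3 siRNAs/gene, 20 nM) in mouse ES cells carrying hypomorphic BRCA2 R2336H; olaparib 500 nM added 48 h post-transfection, CellTiter-Glo viability 72 h later. Normalized to plate-median negative control; MAD z-scores, gene median, seed-adjusted.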

| Sequence | z-score |
| --- | --- |
| GGUCAUCGGGAGGUUUGAATT against Nfkbil1 | inactive: 1.23 |
| GGGAUACGGUCCACACUAUTT against Arl1 | inactive: -1.33 |
| GGGAAAGCAAAAAUAAUCUTT against Gp38 | inactive: -0.688 |
| GGAGCAAGAUGAAGAAGAGTT against Ticam2 | inactive: -2.14 |
| CGAGCAUCUGUUAUGUACATT against Olfr19 | inactive: 1.01 |
| GGUAUUGGUUAAGUAUCACTT against Sumo3 | inactive: 0.979 |
| GGAAUUUUCUGAGAUUCGGTT against Il20 | inactive: 0.299 |
| GCCACUUCACAGCAAGCUATT against Cdk2ap1 | inactive: 0.599 |
| CCUAUGAAUUGGCUAUCAUTT against 1300013J15Rik | inactive: -0.3 |
| GGUCAGGAUGAAGAAAACATT against Nedd4l | inactive: -0.897 |
| GGAAAUGUUUCUGUUCAUUTT against Nipsnap3a | inactive: 0.0974 |
| UAUCACAGACAUGAAAGAATT against Lst1 | inactive: 1.39 |
| GGAAAAAAGCCUCAUCGGATT against 4931433A13Rik | inactive: -0.23 |
| GGGAAGCUACUCUUUGUCUTT against Hexb | inactive: 0.745 |
| GGAAAAUGGGAAGACAGAGTT against AW557805 | inactive: -0.799 |
| GGAGUUUCUCUUAGGGAAATT against 1110014K08Rik | inactive: 0.448 |
| CCAGUAAGGCUUUUAUAUATT against 6430706D22Rik | inactive: 2.33 |
| CCAAUUUGACCCAUACUAUTT against 4632407F12Rik | inactive: -0.745 |
| GGAUCUUGGAUGAGCUGACTT against Krt1-1 | inactive: -0.2 |
| GGUGACAGGAAAGUUCUGUTT against AI987692 | inactive: 1.89 |
| CCAUACUAUUUGCUUUUGCTT against Apg5l | inactive: -0.471 |
| GCAGGCUAUGUUCUGGAAUTT against Zfp212 | inactive: 1.18 |

4 entries from above, comma-delimited.
Sequence,z-score
GGAGUUUCUCUUAGGGAAATT against 1110014K08Rik,inactive: 0.448
CCAGUAAGGCUUUUAUAUATT against 6430706D22Rik,inactive: 2.33
CCAAUUUGACCCAUACUAUTT against 4632407F12Rik,inactive: -0.745
GGAUCUUGGAUGAGCUGACTT against Krt1-1,inactive: -0.2

The list goes on:

| Sequence | z-score |
| --- | --- |
| GCCUGUUCUCAAGACUGACTT against Sema4a | inactive: -0.413 |
| CGUUGUAUAACAAACCAAUTT against Muc6 | inactive: -1.12 |
| GGAAACAACCCAAAGAAUCTT against Slc12a8 | inactive: -0.297 |
| GGACUUCACAAAGAGCUUUTT against 4930415J21Rik | inactive: -0.254 |
| GGGAAAAUGUUGAUGCUGATT against Akp5 | inactive: -1.65 |
| GCUACCACAUUUAAACCUUTT against Mrps14 | inactive: -0.183 |
| GGUUUUCCCACAUGUCAGATT against 2610510L01Rik | inactive: 0.204 |
| GGAAAUCAGAAGAAGAACATT against Hars | inactive: -1.2 |
| CCACAGAAAUAUUUCUGUGTT against Olfr292 | inactive: 0.916 |
| CCCACAUGUUGUCUGUAUUTT against Opn3 | inactive: -0.8 |
| GGAUGAUGAUGAGGAAGGGTT against Cd2bp2 | inactive: -0.438 |
| GGAGAAAACAGGCAAUAGUTT against E130201N16Rik | inactive: 0.624 |
| GGUGAUGUUUGUCAACAACTT against Slc14a2 | inactive: 0.822 |
| GGCUCAUCGAGAUUAACCCTT against AI790298 | inactive: -0.371 |
| GGAUUUGAAUUUGAGAGUUTT against 5730410I19Rik | inactive: -0.35 |
| GGAUUUAAUGGUAAAUCACTT against 2310035C23Rik | inactive: 0.235 |
| ACAUACCAGUCUCUGUACCTT against BC028278 | inactive: -0.264 |
| CCCUAUUGCUAAAUCCUAATT against C030038J10Rik | inactive: 2.22 |
| GGAAACAGGAAACAAUCUATT against D11Ertd461e | inactive: 1.28 |
| GGACUUUGACUUAUCAAAUTT against Kctd11 | inactive: 0.146 |
| GGAGGAUCGGAAAAAAGCUTT against Ccdc9 | inactive: -0.294 |
| GGAGAAAAAAGCUAUGACUTT against Zfp120 | inactive: 1.12 |

| Sequence | z-score |
| --- | --- |
| GGAUGUCUUCAGCUUCAGGTT against Olfr992 | inactive: 0.77 |
| GCAUCGUUUUGAUCGAAUATT against Ttrap | inactive: 0.409 |
| CGCGUCUGUGAAGACCUGUTT against P2rx4 | inactive: 2.34 |
| GGACAUUUGAUGACAGUGCTT against Thbd | inactive: 0.394 |
| CGACUUUAAUCAGAGGGCATT against Slc16a3 | inactive: -0.402 |
| GCUUUGUCACUACCACUGUTT against Olfr1329 | inactive: 0.138 |
| GGAUCGUGAGCUUCUAUUATT against C730027P07Rik | inactive: -2.26 |
| CGAUCUGUGAUUGAACCACTT against Pak1 | inactive: -0.971 |
| GGGUGAACUCGGAUUGCCUTT against Col23a1 | inactive: -2.44 |
| GGAUCCUAGAGUUUGAGAATT against Rabl5 | inactive: -0.134 |
| GGUGACUUGUAAAGAUUUUTT against Dstn | inactive: 0.363 |
| CCCGACGACUUAAAAUGGATT against 9030625G08Rik | inactive: -0.354 |
| GCUUCGAAACGGCCACAAGTT against Grb7 | inactive: -0.0847 |
| GCUACUGGUCAAUCUGUUCTT against Ifna2 | inactive: 0.891 |
| UCCUUACAUACGAUGUGAATT against Rab20 | inactive: -0.0892 |
| GCUUUAGAUACGUGAUUAGTT against 5830417C01Rik | inactive: -1.26 |
| CCAGAUGCCCUUAUAUUGGTT against 6330583M11Rik | inactive: -0.891 |
| GCGGUAUGGAAAAAGAGAUTT against Pyy | inactive: -0.528 |
| GGCUCAGAAGAAAAUGGAUTT against Kcnk4 | inactive: 0.457 |
| GGUGACUACUACAGGAAACTT against Hps1 | inactive: 1.4 |
| GCUCAAGUGCUCGAAUGACTT against Vps11 | inactive: 0.964 |
| CGCAGCUUUCUAUACUGGCTT against Ngfb | inactive: -1.17 |
